US7271239B2, “D-isomers of antimicrobial peptide” (The Research Foundation of State University of New York, priority 2004, dated 2007)
At least one peptide structure holds a part that was inferred or is arguable (an end, a ring closure or a residue). Where no end group is shown, it is not given here.

Key:
C. albicans = assay: In vitro killing assay (Example 2); format: cell-based; settings: sodium phosphate buffer, 1.5 h, 37° C.
C. albicans strain DIS = format: in vivo, mice ICR strain
Protocol: A previously described protocol was adopted (14). Mice were immunosuppressed with two subcutaneous injections of prednisolone at a dose of 100 mg/kg body weight 1 day prior to and 3 days after the infection with C. albicans. Tetracycline hydrochloride in drinking water at a concentration of 0.83 mg/ml was given to mice beginning 1 day before infection. Mice were anesthetized by intramuscular injection with 60 μl of 2 mg/ml chlorpromazine chloride, using a dose of 10 mg/kg body weight of mice. While under anesthesia, a small cotton ball soaked in 0.1 ml aliquot of C. albicans cell suspension (2.5×10^6 cells) was used to swab the entire oral cavity of the anesthetized mice.
Visual evaluation was done by carefully extending the tongue of randomly picked mice using blunt-end forceps, while the mice were under isoflurane sedation. Presence of thick, white curd-like patches indicated candidal infection. At day 3 post-infection, all animals were examined for evidence oral candidal infection by microbiological evaluation. The entire oral cavity of anesthetized mice was swabbed using a sterile calcium alginate disposable swab (Fisher Scientific), dampened with sterile PBS. Cells were then released from the swab into 1 ml PBS. Serial 10-fold dilutions were plated on SDA plates supplemented with streptomycin (30 μg/ml). Plates were incubated for 24 h at 37° C. and yeast cell count expressed as log10 of cfu/ml.
Tongues from sacrificed animals were used for histological studies. They were fixed in 10% formalin and embedded in paraffin. Serial five-μm sections were cut from the paraffin block and stained with periodic acid-Schiff (PAS) reagent for detection of C. albicans.
Mice were randomly divided into various treatment groups with 8 mice per group. Antifungal agents were employed on an equimolar basis, and included amphotericin B (1.75%), clotrimazole (0.66%), MUC7 12-mer (RKSYKCLHKRCR—SEQ ID NO:1) (L; 3%), MUC7 12-mer (D; 3%), MUC7 12-mer (D; 3%) containing Na2EDTA (1 mM), MUC7 12-mer (L; 3%) containing protease inhibitor cocktail (PIC) (1%), and Hsn5 12-mer (AKRHHGYKRKFH—SEQ ID NO:2) (3%). They were all emulsified in Pluronic F127, (20% lipoil), a polymer of polyoxyethylene and polyoxypropylene (non-ionic surfactant). Animals were anesthetized using isoflurane; while sedated, about 30 to 40 μl of the antifungal emulsion was applied on the tongue and spread throughout oral cavity. The treated mice were under sedation for additional 5 min under isoflurane. Animals were not given access to food and water for 1 h following the application.
Fungal burden was re-evaluated quantitatively after 3 and 6 days of treatment, using the same technique as the one used for initial evaluation. Randomly picked mice from each group was subjected to histopathological evaluation, after 6 days of treatment. Blood from randomly sacrificed mice from each treatment group was analyzed for any changes in the serum liver (AST, ALT, ALP etc.) and kidney enzymes (BUN, glucose, creatinine etc) levels.
Statistical analysis was performed using a significance level set at 0.05 (α) and a significant group size (n=8). Initial infection and antifungal treatment efficacy were determined using analysis of variance (ANOVA), expressed as log10 cfu, and Scheffe's multiple comparison test was used to determine the differences between various treatment groups.

S. mutans GS-5 = assay: Time-kill assay; format: cell-based, Streptococcus mutans; settings: after 4 h incubation, each agent at its MIC
Protocol: FIG. 10. Time-Killing curves for S. mutans. […] Control (▪), MUC7 12-mer-L (Δ), MUC7 12-mer-D (□), MUC7 20-mer (▴), Hsn5 12-mer (×), magainin II (●), chlorhexidine (◯).
For the peptides MUC7 12-mer-L, MUC7 12-mer-D, and MUC7 20-mer, time-kill kinetic studies against S. mutans were performed by the broth macrodilution method. S. mutans GS-5 (1×10^6 CFU/ml) and antibacterial agens (find concentrations of 12.5 μM for each peptide, and 2 μM for CHX; their MICs) were incubated in 25% BHI at 37° C. At the time of 0, 1, 2, 4, 8, and 24 h, samples were taken and viable counts determined as follows: The samples were serially diluted (10^−1 to 10^−4) in sterile 10 mM PBS (pH 7.2) and 50 μl aliquots were plated onto TSBY agar. The plates were incubated anaerobically at 37° C. for 48 h, followed by enumerating the CFU. Killing curves were constructed by plotting the log10 CFU per milliliter versus time over 24 h. All assays were done in duplicate on at least two occasions.

S. mutans GS-5 biofilm = format: cell-based, Streptococcus mutans
Protocol: FIG. 11. Effect of peptides on the biofilm formation of S. mutans. The bacterial cells (5×10^5 cfu ml^−1) were inoculated in 96-well microtiter plate containing 25% BHIS medium with different concentration of each agent. Culture without agent was used as no treatment control. After incubation at 37° C. for 24 h, absorbance at 595 nm was recorded to assess the cell growth. Biofilm assay was performed by discarding the supernatants, washing with PBS, fixing with methanol, and staining with CV. The absorbance at 570 nm was recorded to assess the amount of biofilm. The activity was expressed as % of control. Data represents mean and SD of two independent tests with duplicates for each. Empty bar: growth, solid bar: biofilm.
The effect of the peptides on S. mutans in biofilm formation was examined by the microdilution method. This method is similar to the MIC assay for planktonic cells. Two-fold serial dilutions of each peptide were prepared in wells of polystyrene microtiter plates (Microtest tissue culture plate, 96 well, Falcon, Becton Dickinson and Company, N.J.) containing 25% BHI medium supplemented with 1% sucrose (BHIS) at a volume of 200 μl per well. The final concentration of the peptide ranged from 0.78 to 100 μM for each peptide. Chlorhexidine (CHX, 0.078 to 10 μg/mL) was used as the positive control, the medium without drug as the non-treated control, and the medium alone as the blank control. The cells suspension of S. mutans GS-5 was prepared as describe in MIC assay and 20 μl aliquot (final concentration of cells 5×10^5 CFU/mL) was inoculated to the wells of polystyrene microtiter plates. […] Biofilm formation was quantified by the addition of 200 μl of 95% ethanol to each crystal violet-stained well. The plate was rocked at room temperature for 30 min and the absorbance at 595 nm (A595 nm) was determined with a microplate reader (BioRad Model 3550 Microplate Reader). Percentage of inhibition was calculated with the equation: (1−A595 nm of the test/A595nm of non-treated control)×100.

[1] = test system: S. mutans GS-5 1-day biofilm; format: cell-based, Streptococcus mutans; settings: at or more than MBEC50
Protocol: FIG. 12. Effect of peptides on 1-day biofilm of S. mutans. One-day mature biofilm was prepared as described above. BHI medium supplemented with 1% sucrose (BHIS) with peptides, prepared in another microtiter plate, was then transferred to the biofilm plate. After further incubation at 37° C. for 24 h, the biofilm was fixed, stained, and quantified as describe above. Data represents mean and SD of two independent tests performed in duplicated. Empty bar: growth, solid bar: biofilm.
To examine the effects of the peptides on 1-day mature biofilm, S. mutans GS-5 was inoculated into the wells of another polystyrene microtiter plate containing BHIS at a volume of 200 μl per well. After incubation at 37° C. for 24 h, the culture supernatants from each well were decanted and planktonic cells were removed by washing with PBS. BHIS containing 0.78 to 100 μM peptides, prepared in another microtiter plate, was then transferred to the 1-day biofilm plate, and further incubated at 37° C. for one day. The biofilm was fixed, stained, and quantified as describe above.

AKRHHGYKRKFH [Hsn5 12-mer]
ED90 or concentration required to kill 90% cells (C. albicans): 12.5 µM | Log10 cfu/ml (Mean + S.D.), 3-days treatment (C. albicans strain DIS; Experimental study II): 2.19 ± 1.07 Log10 cfu/ml | Log10 cfu/ml (Mean + S.D.), 6-days treatment (C. albicans strain DIS; Experimental study II, ND = Not detected): 0.82 ± 1.18 Log10 cfu/ml | Log10 cfu/ml (Mean + S.D.), Initial infection (C. albicans strain DIS; Experimental study II, before treatment (baseline)): 4.28 ± 0.37 Log10 cfu/ml | histopathological finding in tongue sections (C. albicans, PAS staining) (C. albicans strain DIS; end of treatment): presence of fewer cells, compared to the placebo | reduction of the viable counts of S. mutans (S. mutans GS-5): 1 log10 | MBIC50 (S. mutans GS-5 biofilm): 39 µg/mL | eradication of 1-day developed biofilm [1]: eradication was not observed
